# Primary screen of a compound library

Sequences of proteins named here, by UniProt entry; tags and fusion partners are left off.
UniProt P9WFT3, whole entry: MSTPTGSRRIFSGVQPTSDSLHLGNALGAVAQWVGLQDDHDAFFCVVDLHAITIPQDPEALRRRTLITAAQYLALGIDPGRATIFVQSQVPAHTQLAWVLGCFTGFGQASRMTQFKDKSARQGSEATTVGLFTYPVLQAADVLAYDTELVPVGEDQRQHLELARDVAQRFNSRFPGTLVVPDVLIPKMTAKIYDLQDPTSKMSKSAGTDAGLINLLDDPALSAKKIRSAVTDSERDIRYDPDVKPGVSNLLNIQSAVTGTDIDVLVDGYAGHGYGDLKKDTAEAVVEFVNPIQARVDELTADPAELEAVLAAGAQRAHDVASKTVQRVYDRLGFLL

Measurements from “University of Dundee, Small-Polar-MMV Screening Library” (2021), ChEMBL document CHEMBL3988442.

Values are the deposited “Percent Effect”, in %.
The controls that fix the scale are not given in the record; negative values are as filed.
Compounds were drawn at random from those tested, without regard to their results.

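Tryptophan-tRNA ligase, Mycobacterium tuberculosis (UniProt P9WFT3). Enzyme assay of tryptophanyl-tRNA synthetase; the read-out is not stated. Tested at 10 µM. Higher most likely means stronger inhibition; the record gives no direction and few retests gave an IC50. About 65,000 compounds were tested under these conditions; 0.098% (about 64) showed 50% or more at least once.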

Compound | percent effect
CCc1nnc2n1CCN(C(=O)c1cnc(C3CC3)s1)C2 | -5.693%
COc1ccc(-n2c(COC(C)C)n[nH]c2=O)cc1 | -4.782%
CC(Cn1cncc1-c1cnn(Cc2ccccc2)c1)N1CCCCC1 (stereo not given) | 0.3264%
CC(C)(C)C(O)CN1CCN(C(=O)COCC2CC2)CC1 (stereo not given) | 0.3846%
Cc1ccc(C(=O)NCCS(=O)(=O)N2CCSCC2)o1 | -0.8602%
Cc1cc(C)cc(OCn2ccc(C(=O)O)n2)c1 | 0.1295%
Cc1ccc(C)c(CS(=O)(=O)Cc2ccn(C)c(=O)c2)c1 | 0.8894%
COCCNC(=O)C(C)N1CCN(C)CC1 (stereo not given) | -3.601%
CCN(CC)c1ccc(NS(=O)(=O)c2cccnc2)cn1 | 1.212%
CC(C)NC(=O)C1CCC2(CCNCC2)C1 (stereo not given) | -0.7276%
CCOCCC1(CNC(=O)c2ccncc2Cl)CCC1 | -0.4599%
CC(C)CN1C[C@@H]2CN(C(=O)c3cccn3C)C[C@@H]2C1=O | -6.296%
COc1cc(C2(C(=O)NC3CCC4(CC3)OCCO4)CC2)ccc1C | -2.916%
CN(CCc1ccccn1)C(=O)c1cn2c(n1)CNCC2 | -4.251%
CCc1nc(C2CCCN2C(=O)c2ccoc2C)no1 (stereo not given) | -2.301%
CCNc1cc2c(nn1)CCN(C(=O)c1cc3cc(C)ccc3o1)C2 | 3.397%
CS(=O)(=O)CC1CCCN(c2ncnc3c2Cc2ccccc2OC3)C1 (stereo not given) | -4.197%
Cc1cccn2c(NC(C)(C)C)c(C3CCN(C(=O)C4CC4)CC3)nc12 | -4.881%
c1csc(SCC2CN=C(N3CCOCC3)S2)c1 (stereo not given) | 1.41%
CC(C)c1ccc(C(=O)O)cc1S(=O)(=O)Nc1ccc(=O)n(C)c1 | 23.84%
Cc1nc(CN2CCOCC2c2[nH]ncc2C)cs1 (stereo not given) | -4.504%
Cc1ccc(CN2CCOCC3(C2)CN(c2ccc(C)s2)C(=O)CO3)o1 (stereo not given) | 2.151%
O=C(c1ccco1)N1CCc2ncnc(Oc3cccnc3)c2CC1 | 2.138%
CSc1nc(C)cc(N2CCC(c3ncc[nH]3)CC2)n1 | 4.549%
COCCN1CCC(CNc2cnc3ccccc3n2)CC1 | -4.886%
CC(=O)NCC(=O)N1CCn2cc(CN3CCN(C)CC3)nc2C1 | -1.906%
CC(C)c1noc(C(C)N2CCN(Cc3ccsc3)CC2)n1 (stereo not given) | 2.047%
Cn1ccnc1-c1ccc(NC[C@H]2CCc3ccccc3O2)nn1 | 2.74%

Once more, the final 3:

CC(=O)NCC(=O)N1CCn2cc(CN3CCN(C)CC3)nc2C1 read -1.906%.
CC(C)c1noc(C(C)N2CCN(Cc3ccsc3)CC2)n1 (stereo not given) read 2.047%.
Cn1ccnc1-c1ccc(NC[C@H]2CCc3ccccc3O2)nn1 read 2.74%.